Data on 2 substances can be found in article PMC5392680.

By UniProt entry, the sequences of proteins in these tests, tags left out.
UniProt P63208: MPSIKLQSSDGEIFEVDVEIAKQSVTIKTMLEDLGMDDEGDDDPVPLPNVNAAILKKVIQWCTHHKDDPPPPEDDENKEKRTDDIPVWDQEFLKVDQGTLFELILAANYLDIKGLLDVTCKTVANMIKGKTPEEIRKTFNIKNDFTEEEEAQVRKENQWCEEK

The target of test [1] is T1, cyclin F, endogenous in CEM-GFP T cells (human (endogenous in CEM-GFP)) (UniProt P41002).
T1 sequence: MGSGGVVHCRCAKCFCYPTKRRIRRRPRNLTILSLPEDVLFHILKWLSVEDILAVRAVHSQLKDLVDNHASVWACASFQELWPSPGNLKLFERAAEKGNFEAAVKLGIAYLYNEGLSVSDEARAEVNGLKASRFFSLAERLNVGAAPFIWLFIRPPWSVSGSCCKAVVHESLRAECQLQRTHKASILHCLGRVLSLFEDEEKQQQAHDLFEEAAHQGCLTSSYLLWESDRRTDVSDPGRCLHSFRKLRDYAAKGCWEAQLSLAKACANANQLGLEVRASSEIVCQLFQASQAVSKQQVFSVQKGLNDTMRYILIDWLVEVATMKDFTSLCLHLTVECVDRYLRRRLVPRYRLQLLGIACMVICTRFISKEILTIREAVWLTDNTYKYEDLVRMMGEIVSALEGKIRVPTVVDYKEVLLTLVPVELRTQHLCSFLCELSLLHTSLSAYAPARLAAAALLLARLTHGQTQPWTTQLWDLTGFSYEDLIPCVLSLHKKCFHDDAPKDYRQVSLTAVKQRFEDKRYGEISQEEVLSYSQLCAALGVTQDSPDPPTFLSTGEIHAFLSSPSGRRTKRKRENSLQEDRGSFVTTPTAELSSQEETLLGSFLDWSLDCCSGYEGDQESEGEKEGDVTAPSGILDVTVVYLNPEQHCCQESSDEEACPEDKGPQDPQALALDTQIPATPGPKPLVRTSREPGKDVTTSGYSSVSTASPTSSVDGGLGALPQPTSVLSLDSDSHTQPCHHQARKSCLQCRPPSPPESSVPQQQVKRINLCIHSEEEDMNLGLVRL
Briefly: co-IP; HIV-1 NL4-3-infected (0.5 m.o.i.) CEM-GFP cells harvested 72 h post-infection, endogenous proteins; IP with cyclin F or Vif antibody, protein A- and G-agarose beads, immunoblot.

The target in test [2] is T2, FLAG-cyclin F (pCMV-FLAG-cyclin F) (human) (UniProt P41002).
T2 sequence: T1 sequence
Briefly: co-IP; HEK293T cells co-transfected with cyclin F and wild-type or CY Mut Vif constructs, lysates 48 h post-transfection; IP with cyclin F or Vif antibody, protein A- and G-agarose beads, immunoblot.

These are yes or no findings as the source states them, for the method shown. In cells and extracts the contact can be indirect. Some results given as binding are weak or reduced against the parent protein; the word gives no strength. Where a sequence is shown, tags or fusion partners need not be part of it.

Take “Skp1, endogenous in CEM-GFP T cells (from UniProt P63208 1-163)”: in test [1], the binding entry is “binds”.
In the case of “Skp1, endogenous in HEK293T cells (from UniProt P63208 1-163)”, in test [2], the binding result is “binds”.
